Data published in patent US20100093612A1 (priority 2007, published 2010).

Assay: general procedure: Fmoc solid-phase peptide synthesis; 2-chlorotrityl chloride polystyrene resin (Fluka, 100-300 mesh, calculated loading 1.55-[…]); TBTU/HOBt/DIEA; cyclisation with DPPA/NaHCO3 or HATU/HOAt/collidine
Conditions: hydrochloride salt; for cyclisation yield: cyclisation step

Substance	final HPLC purity (whole synthesis, 254 nm)	final HPLC purity (whole synthesis, 220 nm)	other results
c[Arg-Gly-Asp-AMPRO4-]	≧98%	–	–
c[-Arg-Gly-Asp-AMPRO9-]	–	98%	–
c[-Arg-Gly-Asp-AMPRO5-]	≧98%	–	–
c[-Arg-Gly-Asp-AMPRO1-]	–	–	cyclisation yield (run 1): 95%; cyclisation yield (run 2): 75%; final HPLC purity (whole synthesis, analytical RP-HPLC in two solvent systems): ≧98%; crude yield (whole synthesis, overall): 35%
c[-Arg-Gly-Asp-AMPRO3-]	≧98%	–	–
c[-Arg-Gly-Asp-AMPRO11-]	–	≧98%	–
c[-Arg-Gly-Asp-AMPRO2-]	≧98%	–	–
c[-Arg-Gly-Asp-AMPRO15-]	–	≧98%	–
